{
  "source": "PubChem BioAssay AID1347076",
  "about": "(National Center for Advancing Translational Sciences (NCATS), 2019)",
  "note": "Out of some 400,000 compounds screened, about 13,000 (3.2%) were called active. The inconclusive results got no clear call from the source; some entries with a clear call stand among them for comparison. Calls come from the whole dose curve; as a rule, active = well fitted cell-killing curve with a large enough effect; inconclusive = small, poorly fitted or top-dose-only effect, or effect the other way; inactive = flat fitted curve, though single readings scatter. Potencies beside an inconclusive call are fits to weak or partial responses and may not hold up. % is set by controls: 0 for no effect and ±100 for the full control effect; potency is the fitted concentration of half-maximal effect.",
  "data": [
    {"assay": "qHTS assay for MDR1-selective chemotherapeutics: Primary screen using the drug-selected MDR subline cells KB-V1; note: nearly all actives have a fitted effect of over 60% in size", "details": "KB-V1 MDR cells viability, CellTiter-Glo, 72 h; activity change, negative = cytotoxicity: at 46.1 µM (top of the series)", "method_in_brief": "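KB-V1 cells (P-gp-expressing MDR subline of KB-3-1) in phenol-red-free DMEM with 10% FBS were exposed to library compounds over a concentration series for 72 h at 37 degrees C. Viability read by CellTiter-Glo luminescence; concentration-effect curves fitted after normalization.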", "values": [
      {"smiles": "COc1cc(OC)c(C2C(C(=O)Nc3ccccc3)=C(C)Nc3ncnn32)cc1OC", "note": "(stereo not given)", "Potency": "inconclusive: 29.1 µM [rising, single point]"},
      {"smiles": "O=C(c1ccccc1)c1cc2c(cc1[N+](=O)[O-])OCCO2", "Potency": "inactive"},
      {"smiles": "COc1ccccc1N1CCN(C(=O)CN(C)S(=O)(=O)c2ccc(C)cc2)CC1", "Potency": "inconclusive: 7.31 µM [cytotoxic, partial curve]"},
      {"smiles": "COc1ccc(Br)cc1CNC(=O)CCc1nc(-c2ccc(C)cc2)no1", "Potency": "inconclusive: 9.2 µM [cytotoxic, partial curve, poor fit]"},
      {"smiles": "C/C(=N\\NC(=O)Cn1nc(C)c(Br)c1C)c1cccs1", "Potency": "active: 14.6 µM"},
      {"smiles": "Cc1ccc(NC(=O)CS(=O)CC(=O)N(C2CCCC2)C(C)C(=O)NC2CCCCC2)cc1", "note": "(stereo not given)", "Potency": "inconclusive: 14.6 µM [cytotoxic, partial curve]"},
      {"smiles": "CC(NC(=O)COC(=O)C1CCN(c2ccc(C(F)(F)F)cn2)CC1)c1ccc(F)cc1", "note": "(stereo not given)", "Potency": "inactive"},
      {"smiles": "Nc1nnc(SCc2c(F)cccc2Cl)s1", "Potency": "inconclusive: 29.1 µM [rising, single point]"},
      {"smiles": "Cn1c(SCC(=O)Nc2ccccc2Cl)nnc1C1CC1", "activity change, negative = cytotoxicity": "inconclusive: -38.1%"},
      {"smiles": "O=C(CCc1nc(-c2ccc(Cl)cc2)no1)NC1CCCCC1", "Potency": "inconclusive: 29.1 µM [cytotoxic, single point]"},
      {"smiles": "O=C(NCc1cccs1)c1csc(COCCO)n1", "Potency": "inactive"},
      {"smiles": "Cc1cccc2nc(-c3ccccc3)nc(N[C@@H](CO)c3ccccc3)c12", "Potency": "inconclusive: 20.6 µM [cytotoxic, partial curve, poor fit]"},
      {"smiles": "O=C(Nc1nnc(-c2ccncc2)o1)c1ccc(Br)s1", "Potency": "inconclusive: 6.51 µM [cytotoxic, partial curve]"},
      {"smiles": "Cc1ccc(S(=O)(=O)N2CCCN(S(=O)(=O)c3ccc(C(F)(F)F)cc3)CC2)cc1", "Potency": "inconclusive: 29.1 µM [cytotoxic, single point]"},
      {"smiles": "COC(=O)c1ccc(Cn2c(CN3CCOCC3)nc3ccccc3c2=O)o1", "Potency": "inconclusive: 23.1 µM [cytotoxic, partial curve]"},
      {"smiles": "Cc1nn(CC(=O)Nc2cc(S(=O)(=O)N(C)C)ccc2Cl)c(C)c1[N+](=O)[O-]", "Potency": "active: 20.6 µM"},
      {"smiles": "O=C(NS(=O)(=O)Oc1ccc(F)cc1F)OC[C@@H]1CCCN2CCCCC12", "note": "(stereo not given in full)", "Potency": "inconclusive: 23.1 µM [rising, single point]"},
      {"smiles": "CCSc1nncn1/N=C/c1ccc(OC)c(OC)c1", "Potency": "inconclusive: 7.31 µM [rising, partial curve]"},
      {"smiles": "Cc1ccnc2nc(C(=O)Nc3cc(Cl)ccc3N3CCOCC3)nn12", "Potency": "inconclusive: 29.1 µM [cytotoxic, single point]"},
      {"smiles": "c1ccc(CN2CCN(CCOCCOc3cccc4ccccc34)CC2)cc1", "Potency": "inconclusive: 11.6 µM [cytotoxic, partial curve, poor fit]"},
      {"smiles": "Cc1cc(Cl)c(O)c(-n2nc3ccccc3n2)c1", "Potency": "inactive"},
      {"smiles": "O=C(NCCCCc1ccccc1)c1cccc(NC(=O)C2CCC2)c1", "Potency": "inconclusive: 0.291 µM [cytotoxic, partial curve]"},
      {"smiles": "O=C1CCN(Cc2ccccc2)C=C1C(=O)c1ccccc1", "activity change, negative = cytotoxicity": "inconclusive: 0%"},
      {"smiles": "C[C@@H]1CN([C@@H](C)CO)C(=O)CCCn2nncc2CO[C@@H]1CN(C)S(=O)(=O)c1ccc(Cl)cc1", "Potency": "inconclusive: 29.1 µM [rising, single point]"},
      {"smiles": "C=CCc1cc(Cl)ccc1OCCN(C)C", "Potency": "inactive"},
      {"smiles": "CS(=O)(=O)N(Cc1ccccc1)c1ccc(C(=O)Nc2ccc(Cl)cc2)cc1", "Potency": "inconclusive: 25.9 µM [cytotoxic, single point]"},
      {"smiles": "CCC(C)(C)NC(=O)CCn1c(-c2ccccc2)cc(C(C)=O)c1C", "Potency": "inconclusive: 16.4 µM [cytotoxic, single point]"},
      {"smiles": "Cc1cccc(-n2nc(C)c(C(=O)N3CCN(c4ccccc4)CC3)c2-n2cccc2)c1", "Potency": "inactive"},
      {"smiles": "CCOc1ccc(NC(=O)[C@@H]2CCCN2C(=O)c2cccs2)cc1S(=O)(=O)N1CCCCC1", "Potency": "active: 9.2 µM"},
      {"smiles": "C=CCN=C1CC(C)(C)CC(=O)/C1=C(\\O)CCCN1C(=O)c2ccccc2C1=O", "Potency": "inconclusive: 8.2 µM [cytotoxic, partial curve, poor fit]"},
      {"smiles": "C/C=C/c1cc(CN2CCN(c3ccccc3)CC2)c(O)c(OC)c1", "Potency": "inactive"},
      {"smiles": "Cc1oc2cc3oc(=O)c(CC(=O)NCCC(=O)O)c(C)c3cc2c1C", "Potency": "inconclusive: 0.651 µM [rising, full curve]"},
      {"smiles": "CCN(CC)S(=O)(=O)c1cccc(NC(=O)c2ccc(S(=O)(=O)N3CCCC3)cc2)c1", "Potency": "inactive"},
      {"smiles": "Cc1ccc(-c2cc(C(=O)N/N=C/c3ccccc3O)n[nH]2)o1", "Potency": "inconclusive: 4.11 µM [cytotoxic, full curve, poor fit]"},
      {"smiles": "Cc1cccc(-n2cnc3cc(C(=O)N4CCc5ccccc54)ccc32)c1", "Potency": "active: 13 µM"},
      {"smiles": "O=C(CCS(=O)(=O)c1ccccc1)Nc1nc(-c2cccs2)cs1", "Potency": "active: 23.1 µM"},
      {"smiles": "COCCCNC(=S)NC1CCCCC1", "activity change, negative = cytotoxicity": "inconclusive: 0.24%"},
      {"smiles": "CCc1ccc(CC2S/C(=C(\\C#N)C(C)=O)NC2=O)cc1", "note": "(stereo not given)", "Potency": "active: 7.31 µM"},
      {"smiles": "COc1ccc(-c2cc(C(=O)NC3CC3)c3ccccc3n2)cc1", "Potency": "inactive"},
      {"smiles": "Cc1ccc(C)c(N2CCN(C(=O)C(CC(C)C)NS(=O)(=O)c3ccc4nc(C)sc4c3)CC2)c1", "note": "(stereo not given)", "Potency": "inconclusive: 29.1 µM [cytotoxic, single point]"},
      {"smiles": "CCCc1cc(C(=O)N2CCCC(Cc3cccc(Cl)c3)(C(=O)OCC)C2)n(C)n1", "note": "(stereo not given)", "Potency": "inconclusive: 25.9 µM [cytotoxic, single point]"},
      {"smiles": "COc1ccccc1C(=O)Nc1ccc(S(=O)(=O)Nc2ncccn2)cc1", "Potency": "inactive"},
      {"smiles": "COc1cccc(-c2nc(SCC(=O)Nc3ccc4c(c3)OCCO4)c(-c3ccc(C)cc3)[nH]2)c1", "Potency": "inconclusive: 16.4 µM [cytotoxic, single point]"},
      {"smiles": "Cc1ccc(C(=O)NC(C)c2ccncc2)o1", "note": "(stereo not given)", "Potency": "inconclusive: 20.6 µM [rising, partial curve]"},
      {"smiles": "CN(C)CCNC(=O)CNC(=S)N(Cc1ccccc1)Cc1cccnc1", "Potency": "inconclusive: 29.1 µM [rising, single point]"}
    ]}
  ]
}
